Results are given in words; binding and its absence hold for the method and conditions named. Binding seen in cells or lysates may run through a third protein. These calls come from enrichment with a bait or labelling near it, and not all partners need be listed.
Target: T1, DDIAS-pT775 peptide, biotinylated (human)
T1 sequence (peptide, biotin on the N terminus; phosphothreonine at Thr775 ([pThr])): SGSGSQDFVPCSQSTPIS
Assay: affinity purification with mass spectrometry

## PLK1, endogenous in 293FT cells (from UniProt P53350 1-603) (enzyme)
  binding: binds

— paper doi:10.1101/2025.09.09.675193 (bioRxiv, 2025)
